Data source: PubChem BioAssay AID504793 (Drosophila RNAi Screening Center, 2011)
In all, the deposit lists about 23,000 reagents; this is an unselected part of those that have a named target and a result. Of all reagents, 62 (0.27%) are marked active. 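Calls come from follow-up tests whose scores are not deposited, so confirmed genes may have low counts here; counts are not normalised per plate.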 The raw values are shown without normalisation. Entries without a mark were called inactive. Reagents against one gene are numbered here. A plus sign joins genes that one reagent is predicted to hit.

Aim: 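Genes required for cells to halt at G2/M after double-strand DNA breaks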 (primary screen)
System: Drosophila S2R+ cells
Knock-down reagent: long dsRNA against Drosophila genes, about 0.25 µg dsRNA per well
Duration: 4 days of dsRNA, then 4 hours of drug before read-out
Treatment: doxorubicin 0.5 µM for 4 hours to cause double-strand breaks, in cells also given a low, harmless dose of dsRNA against nbs to sensitise the assay
Measured: 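Mitotic index as the number of phospho-histone H3-positive cells in each well following doxorubicin, given as raw counts without normalisation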
Direction: mitotic cells: higher = more cells in mitosis, weaker G2 arrest
Active means: 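a call needs confirmation in secondary tests, with other dsRNAs and a check of mitotic timing without damage, not just a high primary count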
Meaning of the calls: active = confirmed in follow-up tests; inactive = not confirmed

Target gene	dsRNA no.	mitotic cells, replicate 1
Acph-1	1	13
CG13375	1	9
GIIIspla2	1	3
GIIIspla2	2	8
Hrb98DE	1	6
Hrb98DE	2	14
Atg3	1	9
Atg3	2	4
Atg3	3	3
Spx	1	10
Spx	2	8
CG31933	1	9
ap	1	8
tara	1	12
tara	2	8
Ptr	1	5
Ptr	2	1
CG34429	1	2
CG8260	1	13
sip3	1	8
sip3	2	1
Nsun5	1	6
ksh	1	46
ksh	2	4
CG6923	1	10
CG6923	2	3
Rnb	1	4
Rnb	2	5
CG14104	1	7
Gr9a	1	10
CycJ	1	5
CycJ	2	8
tor	1	7
CG42542	1	7
CG42542	2	17
CG42542	3	6
CG42542	4	5
CG9451	1	1
CG9451	2	6
CG18853	1	4
Herp	1	7
Herp	2	8
CG4461	1	4
CG4461	2	6
MED28	1	18
Dtg	1	10
Dtg	2	7
Spn47C	1	7
Spn47C	2	3
CG4282	1	9
mRpL42	1	5
Hsdl2	1	2
Hsdl2	2	6
Inx7 + cm	1	7
CG10226	1	11
Herc4	1	9
Or22a	1	22
Or22a	2	2
crp	1	2
Argp	1	8
CG3342	1	2
CG3342	2	6
lqfR	1	7
lqfR	2	6
lqfR	3	8
CG15452	1	4
CG14443	1	8
spaw	1	7
t-Grip84	1	9
P5cr	1	18
CG14721	1	3
mats	1	5
mats	2	7
LeuRS-m	1	8
LeuRS-m	2	10
